Experimental data taken from patent US20200172868A1.
No constants are given. Whether binding was seen depends on the method and setting. Some binding calls cover weakened binding; strength is not graded here.

Chains of the proteins cited; added tags and fusions are not shown. Residues count along the entry.
UniProt Q07011, residues 24-186: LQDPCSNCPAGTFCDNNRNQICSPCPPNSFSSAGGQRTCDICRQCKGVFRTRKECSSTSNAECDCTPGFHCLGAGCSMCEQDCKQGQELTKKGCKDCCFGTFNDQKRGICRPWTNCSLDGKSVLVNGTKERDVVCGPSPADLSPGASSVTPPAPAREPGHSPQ
UniProt P41273, residues 50-254: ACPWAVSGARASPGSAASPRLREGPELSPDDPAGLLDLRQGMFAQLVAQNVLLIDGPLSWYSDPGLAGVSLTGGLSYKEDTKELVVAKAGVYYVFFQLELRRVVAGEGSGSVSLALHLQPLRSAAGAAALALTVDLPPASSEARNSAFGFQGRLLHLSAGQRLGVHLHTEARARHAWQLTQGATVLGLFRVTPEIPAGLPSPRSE

Biological target: recombinant 41-BB (UniProt Q07011)
Test: flow cytometry; recombinant 41-BB on erythroid cells displaying 41-BB-L

41-BB-L expressed on enucleated erythroid cells (from UniProt P41273 50-254) (ligand)
binding: binds
